Assay results reported in PMC3911986.
No constants are given. Whether binding was seen depends on the method and setting. In cells and extracts the contact can be indirect. Some entries that bind do so weakly or less than the wild type.

By UniProt entry, the sequences of proteins in these tests, tags left out.
UniProt Q91ZW3: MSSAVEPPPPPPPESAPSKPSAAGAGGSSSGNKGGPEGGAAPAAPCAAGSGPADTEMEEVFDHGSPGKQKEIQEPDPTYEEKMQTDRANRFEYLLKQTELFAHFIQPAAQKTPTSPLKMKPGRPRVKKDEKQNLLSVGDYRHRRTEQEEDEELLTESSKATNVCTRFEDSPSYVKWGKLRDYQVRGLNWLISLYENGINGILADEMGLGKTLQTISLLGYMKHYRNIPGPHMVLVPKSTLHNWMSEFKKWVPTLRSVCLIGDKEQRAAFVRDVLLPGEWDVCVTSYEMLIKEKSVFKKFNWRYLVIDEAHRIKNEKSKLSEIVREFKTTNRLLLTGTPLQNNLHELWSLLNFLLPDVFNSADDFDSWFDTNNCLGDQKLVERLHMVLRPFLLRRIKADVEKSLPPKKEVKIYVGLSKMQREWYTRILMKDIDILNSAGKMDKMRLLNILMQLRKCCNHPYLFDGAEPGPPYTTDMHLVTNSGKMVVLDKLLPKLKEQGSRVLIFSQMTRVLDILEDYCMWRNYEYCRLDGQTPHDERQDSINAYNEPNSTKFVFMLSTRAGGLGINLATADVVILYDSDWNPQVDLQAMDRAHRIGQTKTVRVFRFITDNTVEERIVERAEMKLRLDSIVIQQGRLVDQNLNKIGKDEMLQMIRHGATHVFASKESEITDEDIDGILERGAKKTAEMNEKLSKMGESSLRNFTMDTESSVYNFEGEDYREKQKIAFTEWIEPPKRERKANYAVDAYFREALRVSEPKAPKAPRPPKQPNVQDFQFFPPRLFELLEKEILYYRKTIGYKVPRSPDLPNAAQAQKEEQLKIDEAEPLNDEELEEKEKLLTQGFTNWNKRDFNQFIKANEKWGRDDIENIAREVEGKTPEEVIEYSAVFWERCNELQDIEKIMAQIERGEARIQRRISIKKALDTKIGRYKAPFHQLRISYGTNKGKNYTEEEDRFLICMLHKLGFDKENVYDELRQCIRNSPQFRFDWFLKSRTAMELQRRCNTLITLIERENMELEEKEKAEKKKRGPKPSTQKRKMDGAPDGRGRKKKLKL
UniProt O60264: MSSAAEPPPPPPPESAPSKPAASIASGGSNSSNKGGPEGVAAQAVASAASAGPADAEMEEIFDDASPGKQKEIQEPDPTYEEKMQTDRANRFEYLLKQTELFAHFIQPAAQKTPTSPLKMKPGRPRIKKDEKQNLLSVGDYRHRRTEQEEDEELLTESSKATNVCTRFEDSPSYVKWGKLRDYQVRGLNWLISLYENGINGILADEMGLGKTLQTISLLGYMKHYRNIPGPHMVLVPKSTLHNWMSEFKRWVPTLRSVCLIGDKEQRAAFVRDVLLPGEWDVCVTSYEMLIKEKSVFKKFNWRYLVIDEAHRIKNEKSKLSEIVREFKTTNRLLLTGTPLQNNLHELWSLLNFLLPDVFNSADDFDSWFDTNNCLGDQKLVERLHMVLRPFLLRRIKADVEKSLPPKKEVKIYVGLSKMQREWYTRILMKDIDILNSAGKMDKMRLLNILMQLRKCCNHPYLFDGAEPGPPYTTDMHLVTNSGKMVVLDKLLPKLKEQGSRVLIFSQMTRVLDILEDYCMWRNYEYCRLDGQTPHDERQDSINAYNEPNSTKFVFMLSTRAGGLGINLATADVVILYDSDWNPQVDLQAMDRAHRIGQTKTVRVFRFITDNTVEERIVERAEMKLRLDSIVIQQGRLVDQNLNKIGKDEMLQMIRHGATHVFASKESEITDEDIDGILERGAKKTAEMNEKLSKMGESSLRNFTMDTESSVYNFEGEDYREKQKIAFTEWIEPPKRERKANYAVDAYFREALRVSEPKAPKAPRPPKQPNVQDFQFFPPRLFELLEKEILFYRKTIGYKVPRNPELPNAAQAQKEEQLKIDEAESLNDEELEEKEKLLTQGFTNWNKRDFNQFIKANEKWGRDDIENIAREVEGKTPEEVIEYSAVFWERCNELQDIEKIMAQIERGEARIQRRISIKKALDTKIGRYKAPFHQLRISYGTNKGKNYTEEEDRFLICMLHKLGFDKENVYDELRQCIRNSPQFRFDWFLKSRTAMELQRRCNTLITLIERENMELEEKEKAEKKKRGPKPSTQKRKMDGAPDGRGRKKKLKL

Assays:
[1] = target: T1, Ctcf (CCCTC-binding factor), mouse (mouse (endogenous in MEL)) (UniProt Q61164); assay: co-IP; MEL cells lysed in RIPA, gently sonicated; 100 ug precleared extract with anti-Ctcf or anti-Smarca5 3 hrs at 4 C, then protein A/protein G overnight; washes up to 500 mM NaCl; immunoblot
T1 sequence: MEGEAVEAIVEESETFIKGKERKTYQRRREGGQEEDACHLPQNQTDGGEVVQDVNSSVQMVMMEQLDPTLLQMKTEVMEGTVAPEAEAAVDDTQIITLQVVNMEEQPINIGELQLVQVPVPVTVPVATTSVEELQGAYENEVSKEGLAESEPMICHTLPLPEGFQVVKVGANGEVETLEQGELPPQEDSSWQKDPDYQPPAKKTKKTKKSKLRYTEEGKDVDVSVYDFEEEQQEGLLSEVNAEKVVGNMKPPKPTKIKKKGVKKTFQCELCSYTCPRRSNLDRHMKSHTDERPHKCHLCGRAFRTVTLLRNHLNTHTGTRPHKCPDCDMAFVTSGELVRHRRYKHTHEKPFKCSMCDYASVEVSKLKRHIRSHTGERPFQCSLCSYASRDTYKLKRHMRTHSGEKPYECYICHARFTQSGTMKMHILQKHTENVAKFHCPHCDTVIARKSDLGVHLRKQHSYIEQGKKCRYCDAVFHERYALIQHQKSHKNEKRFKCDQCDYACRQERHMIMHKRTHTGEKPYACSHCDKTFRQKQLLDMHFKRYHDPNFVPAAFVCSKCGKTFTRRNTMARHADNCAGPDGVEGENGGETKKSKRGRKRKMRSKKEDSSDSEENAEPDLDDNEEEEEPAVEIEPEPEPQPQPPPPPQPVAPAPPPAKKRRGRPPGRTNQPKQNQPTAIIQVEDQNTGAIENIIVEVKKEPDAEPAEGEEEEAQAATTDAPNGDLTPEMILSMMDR

[2] = target: T2, CTCF (CCCTC-binding factor), human (human (endogenous in K562)) (UniProt P49711); assay: co-IP; K562 cells lysed in RIPA, gently sonicated; 100 ug precleared extract with anti-Ctcf or anti-Smarca5 3 hrs at 4 C, then protein A/protein G overnight; washes up to 500 mM NaCl; immunoblot
T2 sequence: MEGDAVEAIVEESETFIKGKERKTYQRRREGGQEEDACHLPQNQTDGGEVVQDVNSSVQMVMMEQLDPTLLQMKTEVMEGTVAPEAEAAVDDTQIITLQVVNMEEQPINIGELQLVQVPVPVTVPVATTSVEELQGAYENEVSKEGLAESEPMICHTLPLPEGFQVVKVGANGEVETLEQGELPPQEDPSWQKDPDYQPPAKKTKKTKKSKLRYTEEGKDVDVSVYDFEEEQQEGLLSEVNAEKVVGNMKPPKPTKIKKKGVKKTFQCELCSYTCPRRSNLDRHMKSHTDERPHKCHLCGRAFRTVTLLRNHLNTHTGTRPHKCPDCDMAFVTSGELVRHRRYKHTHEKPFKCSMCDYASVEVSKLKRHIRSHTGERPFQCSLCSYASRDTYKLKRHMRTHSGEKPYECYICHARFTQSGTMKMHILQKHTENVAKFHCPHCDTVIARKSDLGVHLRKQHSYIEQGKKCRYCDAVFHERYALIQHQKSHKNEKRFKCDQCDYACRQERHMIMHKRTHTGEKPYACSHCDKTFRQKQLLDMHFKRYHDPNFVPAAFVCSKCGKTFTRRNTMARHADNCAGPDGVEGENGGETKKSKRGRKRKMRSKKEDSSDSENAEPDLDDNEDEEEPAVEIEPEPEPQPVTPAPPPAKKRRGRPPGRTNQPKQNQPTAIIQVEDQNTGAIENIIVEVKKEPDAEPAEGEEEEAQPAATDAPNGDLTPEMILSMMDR

[3] = target: Smarca5 (Snf2h), ISWI ATPase, mouse (mouse (endogenous in MEL)) (UniProt Q91ZW3); assay: co-IP; MEL cells lysed in RIPA, gently sonicated; 100 ug precleared extract with anti-Ctcf or anti-Smarca5 3 hrs at 4 C, then protein A/protein G overnight; washes up to 500 mM NaCl; immunoblot
[4] = target: SMARCA5 (SNF2H), ISWI ATPase, human (human (endogenous in K562)) (UniProt O60264); assay: co-IP; K562 cells lysed in RIPA, gently sonicated; 100 ug precleared extract with anti-Ctcf or anti-Smarca5 3 hrs at 4 C, then protein A/protein G overnight; washes up to 500 mM NaCl; immunoblot

With “Smarca5 (Snf2h), ISWI ATPase, mouse (from UniProt Q91ZW3 1-1051)” the binding [1] was “binds”.

With “SMARCA5 (SNF2H), ISWI ATPase, human (from UniProt O60264 1-1052)” the binding [2] was “binds”.

B1: Ctcf (CCCTC-binding factor), mouse (protein, UniProt Q61164 1-736)
chain: T1 sequence
In the case of B1, the binding [3] is reported as “binds”.

B2: CTCF (CCCTC-binding factor), human (protein, UniProt P49711 1-727)
chain: T2 sequence
In the case of B2, the binding [4] is reported as “binds”.
